Certain results were filed several times, with different values. The list is limited to them. An entry can have further records. Values that stand side by side seem to repeat one measurement on other runs, samples or individuals.
How the values were obtained:
[1] = molecular target: F295A mutant PDE5 GAFa domain biosensor (Homo sapiens, UniProt O76074, F295A); assay: BRET-based GAFa domain conformational biosensor, cGMP dose-response (F295A); settings: F295A vs WT GAFa domain biosensor
Excerpt: (§1) Having observed alterations in the structural dynamics in the GAFa domain of PDE5 upon L267A and F295A mutations using MD simulations, we then proceeded to determine the impact of these mutations experimentally. […] (Fig. 4A). Broadly, these changes include a close juxtaposition of the sheet β3 and helix α4 leading to a “closing” of the cGMP binding site, an “inward” movement of sheet β1 and β2 towards the cGMP binding site and an “outward” movement of the loop β2/β3 (Fig. 4A, left panel). Additionally, cGMP binding is associated with a close juxtapositioning of helices α2 and α5 at the N- and C-termini of the GAFa domain, likely associated with the transduction of the allosteric signal from the GAFa domain to the catalytic domain in PDE5 (Fig. 4A, right panel). We decided to take advantage of the latter to monitor cGMP-binding induced conformational change in the GAFa domain through an increase in the BRET efficiency of the GAFa domain biosensor that we have described previously[24] (Fig. 4B). BRET is a biophysical technique that involves resonance energy transfer between a bioluminescent donor and a fluorescent acceptor, the extent of which is dependent on the spectral overlap, distance, and relative orientation between the two reporters. […]

[2] = molecular target: L267A mutant PDE5 GAFa domain biosensor (Homo sapiens, UniProt O76074, L267A); assay: BRET-based GAFa domain conformational biosensor, cGMP dose-response (L267A); settings: L267A vs WT GAFa domain biosensor
Excerpt: as §1

fold higher EC50 than the WT protein [1]: 10,000 fold and more than 10000 fold
fold higher EC50 than the WT protein [2]: ~ 5800 fold and more than 5000 fold
SMILES: Nc1nc2c(ncn2[C@@H]2O[C@@H]3COP(=O)(O)O[C@H]3[C@H]2O)c(=O)[nH]1 [cGMP]

Source: PMC11977230, “Coevolving residues distant from the ligand binding site are involved in GAF domain function” (Communications Chemistry, 2025)
